# Data published in PubChem BioAssay.
# The inconclusive results got no clear call from the source; some entries with a clear call stand among them for comparison. The source made the active and inactive calls.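 How the source made its calls: active means RAM network inhibition above 8.4% in each of two replicates, 3 SD over the compound average; inconclusive means above 8.4% inhibition in only one replicate; inactive means 8.4% inhibition or less in each replicate.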
# Experiment: RAM signaling pathway blockade in yeast – S. cerevisiae, Pdr1DBD-CYC8 efflux-inhibited sensitized strain, primary screen (AID 1298);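 further: 0% = DMSO untreated cells without growth and 100% = 10 µM 1-NA-PP1 full growth; higher means more yeast growth rescued from 5-FOA killing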
# Conditions: S. cerevisiae cbk1-as DSE1-URA3 strain, 5-FOA growth OD615, 2 d; at 50 µM; stronger effect = higher value
row,SMILES,RAM network inhibition
1,CSc1nc2ccc(Nc3nc(N4CCOCC4)nc(N4CCOCC4)n3)cc2s1,inconclusive: 15.4%
2,COCCN1C(=O)c2ccccc2C(C(=O)NCCN(C)C)C1c1ccc(F)cc1 (stereo not given),inactive: 2.13%
3,COC(=O)C1=C(N)N(c2ccc(F)cc2)C2=C(C(=O)CCC2)C1c1ccc2c(c1)OCO2 (stereo not given),inconclusive: 11.2%
4,CCOC(=O)c1cc2c(=O)n3ccccc3nc2n(Cc2ccco2)c1=NC(=O)c1cccnc1,inconclusive: 10.8%
5,CCC(C)(C(=O)NC1CCCC1)N(C(=O)CNC(C)=O)c1ccc(C)cc1 (stereo not given),inconclusive: 13%
6,Cc1c(S(=O)(=O)N2CCc3ccccc3C2)c(=O)n(C)c(=O)n1C,inconclusive: 12.4%
7,CC12COC3(C(=O)Nc4ccc(Cl)cn4)CC1CCC32C (stereo not given),inconclusive: 11.9%
8,O=C(CSc1ncnc2nc[nH]c12)c1ccc(Cl)cc1,inactive: 5.06%
9,CCCCOc1ccccc1C1NC(=O)NC(C)=C1C(=O)OCCOC (stereo not given),inconclusive: 9.5%
10,O=C(Nc1ccc(S(=O)(=O)N2CCCCCC2)cc1)c1ccc(Br)o1,inactive: 5.05%
11,COc1ccc(OC)c(-c2cc(C(=O)N3CCN(c4ccccc4)CC3)no2)c1,inconclusive: 10.4%
12,Cn1c(SCc2ccccc2Cl)nnc1-c1cnccn1,inconclusive: 11.4%
13,COc1ccc(/C=N/n2cnnc2SCc2ccc(OC)cc2)cc1,inconclusive: 11.5%
14,N#CCCn1cc(C(CC(=O)c2ccc(Br)cc2)C(=O)O)c2ccccc21 (stereo not given),inconclusive: 12.4%
15,COC(=O)c1c(NC(=O)C2CC2)sc2c1CCCC2,inconclusive: 11.4%

# Individual results from the entries so far.
# For RAM network inhibition, COc1ccc(/C=N/n2cnnc2SCc2ccc(OC)cc2)cc1 shows inconclusive: 11.5%
# For RAM network inhibition, CCCCOc1ccccc1C1NC(=O)NC(C)=C1C(=O)OCCOC (stereo not given) shows inconclusive: 9.5%
